The other results are listed elsewhere or left out.
These sequences were tested against OsWRKY34 (Oryza sativa, UniProt Q0JBA9 1-250) (assay: protein-binding microarray (RPBM); PBS, 2% BSA, 51.3 ng/ul salmon testes DNA, 50 uM zinc acetate, 200 nM TF, 25 C, 1 h; high values mean tight binding). Conditions: protein: recombinant; tags: N-terminal polyhistidine and DsRed monomer fusion (pET32a); label: CyDye5-dUTP incorporated in the synthesized complementary strand; 3' TTTTT single-stranded linker to array surface; dsDNA, one strand shown.
How it was run: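 Transcription factors, each fused N-terminally to a polyhistidine tag and DsRed, were expressed in E. coli BL21-CodonPlus and purified on Ni–NTA. A custom Agilent array was made double-stranded by primer extension with Cy5-dUTP and blocked with 2% BSA. It was incubated with 200 nM protein in PBS, 2% BSA, salmon testes DNA and 50 µM zinc acetate at 25 °C for 1 h, then washed. The binding signal is per-feature fluorescence intensity (arbitrary units) read on an Axon 4000B scanner.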

Protein sequences, listed by entry. Tags and fused reporters are not part of them.
UniProt Q0JBA9, entry or part of it: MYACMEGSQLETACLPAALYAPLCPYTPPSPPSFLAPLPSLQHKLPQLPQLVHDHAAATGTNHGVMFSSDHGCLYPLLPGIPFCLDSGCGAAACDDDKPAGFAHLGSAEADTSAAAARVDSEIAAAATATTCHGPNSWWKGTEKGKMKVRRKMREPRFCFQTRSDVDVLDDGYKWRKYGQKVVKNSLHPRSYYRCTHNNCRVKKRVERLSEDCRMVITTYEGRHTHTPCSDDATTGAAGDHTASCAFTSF

Sequence | binding signal
CTTTTTTTATATGTCATGCTTGTACACATATTCCATGTACCGGAGTCACCTAGTGCAG | 9350 fluorescence intensity (a.u.)
AGGAACCAATCGTACACACTGGCGCATACAAGCTTCCTACCGGAGTCACCTAGTGCAG | 8880 fluorescence intensity (a.u.)
TAATGTGTTTTAGTTTTTCTTCTGCGTGAAATTTCTGACTCGGAGTCACCTAGTGCAG | 9060 fluorescence intensity (a.u.)
AAGACTCGAAATGTACTTCGTTTTTCTGTTTTCTATTTGACGGAGTCACCTAGTGCAG | 9000 fluorescence intensity (a.u.)
GGATTTCCGCCGCCACCGTCTCCGTCGCCGGTCGCGTCAACGGAGTCACCTAGTGCAG | 11200 fluorescence intensity (a.u.)
AATTTCCCAGGCAACCACGCGCGCTGTTCTCCCGCGCTCTCGGAGTCACCTAGTGCAG | 8480 fluorescence intensity (a.u.)
CATTATGATATGTATATTTCCTTAGTCCTACAAATAGCTACGGAGTCACCTAGTGCAG | 9100 fluorescence intensity (a.u.)
CTTCTTTCCTGTGGTGGGCGACACGCTCTTCGGTTGTTTCCGGAGTCACCTAGTGCAG | 12700 fluorescence intensity (a.u.)
TTCCCCACCCGCTCTAGCCGCCCTCGCCGCCGCCGGAGCCCGGAGTCACCTAGTGCAG | 8200 fluorescence intensity (a.u.)
TTTCCTTTTTTTGTCGGTGTTGGAAATAATTCCCAAGTCTCGGAGTCACCTAGTGCAG | 8800 fluorescence intensity (a.u.)
GTCAAAAGATACTACATCGTCCTCAGGGACCTTGCTCCGTCGGAGTCACCTAGTGCAG | 8470 fluorescence intensity (a.u.)
AGCCTCATATTTTTCTTATTCTTATACTTATCAGCTAAAACGGAGTCACCTAGTGCAG | 9740 fluorescence intensity (a.u.)
AACGCTCCCAAGCTACCACGTGGCCTCCTACAAACTCTCACGGAGTCACCTAGTGCAG | 9540 fluorescence intensity (a.u.)
AATCTATCGTTAGCAAATGTTTACTGTAGCACAATATTGTCGGAGTCACCTAGTGCAG | 8110 fluorescence intensity (a.u.)
ATATGCCGACAATGATTTTTTTTATTTTGGTGTTGCTATACGGAGTCACCTAGTGCAG | 8820 fluorescence intensity (a.u.)
TCCTCTCCACGCCGTCTAGTCTCGTCTCGTCTCGCCGACCCGGAGTCACCTAGTGCAG | 10200 fluorescence intensity (a.u.)
GAACGATACCTTGGCTAACTCCCGCACTTCCTTGCTTGGTCGGAGTCACCTAGTGCAG | 12400 fluorescence intensity (a.u.)
TTACAAAACTTTTAGGTATGATTTTCACGAGTTTTCAACACGGAGTCACCTAGTGCAG | 8390 fluorescence intensity (a.u.)
GACAGTTCCGCTGTTCCGTGTCCGTTTCACCTGGAGTAGTCGGAGTCACCTAGTGCAG | 8860 fluorescence intensity (a.u.)
AGGGAGTATATTTGCAACGGTTTTGGAAATTAGGGGCGGGCGGAGTCACCTAGTGCAG | 11700 fluorescence intensity (a.u.)
CACCGTACCTCGCCATATCGTCAAGCAGCAGTGCTAACTACGGAGTCACCTAGTGCAG | 9120 fluorescence intensity (a.u.)

A stretch from the list above, as a working copy:
Sequence | binding signal
GGATTTCCGCCGCCACCGTCTCCGTCGCCGGTCGCGTCAACGGAGTCACCTAGTGCAG | 11200 fluorescence intensity (a.u.)
AATTTCCCAGGCAACCACGCGCGCTGTTCTCCCGCGCTCTCGGAGTCACCTAGTGCAG | 8480 fluorescence intensity (a.u.)
CATTATGATATGTATATTTCCTTAGTCCTACAAATAGCTACGGAGTCACCTAGTGCAG | 9100 fluorescence intensity (a.u.)
CTTCTTTCCTGTGGTGGGCGACACGCTCTTCGGTTGTTTCCGGAGTCACCTAGTGCAG | 12700 fluorescence intensity (a.u.)
TTCCCCACCCGCTCTAGCCGCCCTCGCCGCCGCCGGAGCCCGGAGTCACCTAGTGCAG | 8200 fluorescence intensity (a.u.)
TTTCCTTTTTTTGTCGGTGTTGGAAATAATTCCCAAGTCTCGGAGTCACCTAGTGCAG | 8800 fluorescence intensity (a.u.)
GTCAAAAGATACTACATCGTCCTCAGGGACCTTGCTCCGTCGGAGTCACCTAGTGCAG | 8470 fluorescence intensity (a.u.)
AGCCTCATATTTTTCTTATTCTTATACTTATCAGCTAAAACGGAGTCACCTAGTGCAG | 9740 fluorescence intensity (a.u.)
AACGCTCCCAAGCTACCACGTGGCCTCCTACAAACTCTCACGGAGTCACCTAGTGCAG | 9540 fluorescence intensity (a.u.)
AATCTATCGTTAGCAAATGTTTACTGTAGCACAATATTGTCGGAGTCACCTAGTGCAG | 8110 fluorescence intensity (a.u.)
ATATGCCGACAATGATTTTTTTTATTTTGGTGTTGCTATACGGAGTCACCTAGTGCAG | 8820 fluorescence intensity (a.u.)

Additional entries follow:

Sequence | binding signal
TTTTTGTACTGTTAATTAGCTTTCATACCGTTTTTGTAAGCGGAGTCACCTAGTGCAG | 9410 fluorescence intensity (a.u.)
CGATCGCAAAAAAGAAAAAAAAAACAATTTCCTTTTGGGGCGGAGTCACCTAGTGCAG | 8310 fluorescence intensity (a.u.)
AACCACTTCTCCACCTGTGTCAGTTGCAAACCATTGATCTCGGAGTCACCTAGTGCAG | 9210 fluorescence intensity (a.u.)
GTATACTTTCTCCATCCCATAAAAAACCATGGTACTATATCGGAGTCACCTAGTGCAG | 8400 fluorescence intensity (a.u.)
TTGCGCTTCTAGCTCCAATATCTCGGTCTTCTTGTCCTCCCGGAGTCACCTAGTGCAG | 8290 fluorescence intensity (a.u.)
TTTTTTCGGTGTTTTTCTTTTTGTTTCTTTTCGCTTCGCTCGGAGTCACCTAGTGCAG | 12700 fluorescence intensity (a.u.)
TCGTCGGCGTCGCGTTCACGGCCGCCGTGGCCGTGGCCGTCGGAGTCACCTAGTGCAG | 16500 fluorescence intensity (a.u.)
CATTTGATCGTTCGTTTTATTTGAATTATTTTATGATTAACGGAGTCACCTAGTGCAG | 9280 fluorescence intensity (a.u.)
CCACCGTGATTTTCGCTCCCATCACCGCGCGAGGACTCCGCGGAGTCACCTAGTGCAG | 10900 fluorescence intensity (a.u.)
ATTCGTTCATTTTTTCTATGGCATATTTTTTTATGGTAAACGGAGTCACCTAGTGCAG | 9480 fluorescence intensity (a.u.)
CGCCACTACAAATACCACCACCTCGATCGTCGCCGCCGCGCGGAGTCACCTAGTGCAG | 10800 fluorescence intensity (a.u.)
AAGACATTTTGGTCCAATTTGACCGATCTGCTGGTCACTGCGGAGTCACCTAGTGCAG | 8110 fluorescence intensity (a.u.)
AAGGTCAAACCGGGTCAGGTTGTTTGATGACGTGGCTTATCGGAGTCACCTAGTGCAG | 8850 fluorescence intensity (a.u.)
TCGGATTTGGGGAGGTGTTATACCTGGTTTTATGGCTGAGCGGAGTCACCTAGTGCAG | 14700 fluorescence intensity (a.u.)
TCACCAAACATATCGATCCATCCCTCTACCAGTCAAGAAACGGAGTCACCTAGTGCAG | 8990 fluorescence intensity (a.u.)
GTTTTAATGGTTAGAGGGGTCGATGTAAACGTTTTTGCCGCGGAGTCACCTAGTGCAG | 9250 fluorescence intensity (a.u.)
TCTTATGTGCTTGCTTGCTACGTCCGGAGTCCCTGGACTACGGAGTCACCTAGTGCAG | 9840 fluorescence intensity (a.u.)
CCACCACTGTGGCGCCTGACACAGCTCACACCTTTGACGACGGAGTCACCTAGTGCAG | 8480 fluorescence intensity (a.u.)
CCATGCTTGCTTTCCTGATTTCTTAATTCGCATCATTTCGCGGAGTCACCTAGTGCAG | 9870 fluorescence intensity (a.u.)
ATACGACACTCCATATACACTGTAGTGACCATATAAGTTACGGAGTCACCTAGTGCAG | 8100 fluorescence intensity (a.u.)
AATCGTCGTGCCATGTTCGATCCTCGTCTCTCGTCGCAGACGGAGTCACCTAGTGCAG | 11800 fluorescence intensity (a.u.)

Reference: publication PMC7819943, “Rice protein-binding microarrays: a tool to detect cis-acting elements near promoter regions in rice”
